Publication PMC9638028, “Yeast Smy2 and its human homologs GIGYF1 and -2 regulate Cdc48/VCP function during transcription stress” (Cell Reports, 2022)

By UniProt entry, the sequences of proteins in these tests, tags left out.
UniProt P25694: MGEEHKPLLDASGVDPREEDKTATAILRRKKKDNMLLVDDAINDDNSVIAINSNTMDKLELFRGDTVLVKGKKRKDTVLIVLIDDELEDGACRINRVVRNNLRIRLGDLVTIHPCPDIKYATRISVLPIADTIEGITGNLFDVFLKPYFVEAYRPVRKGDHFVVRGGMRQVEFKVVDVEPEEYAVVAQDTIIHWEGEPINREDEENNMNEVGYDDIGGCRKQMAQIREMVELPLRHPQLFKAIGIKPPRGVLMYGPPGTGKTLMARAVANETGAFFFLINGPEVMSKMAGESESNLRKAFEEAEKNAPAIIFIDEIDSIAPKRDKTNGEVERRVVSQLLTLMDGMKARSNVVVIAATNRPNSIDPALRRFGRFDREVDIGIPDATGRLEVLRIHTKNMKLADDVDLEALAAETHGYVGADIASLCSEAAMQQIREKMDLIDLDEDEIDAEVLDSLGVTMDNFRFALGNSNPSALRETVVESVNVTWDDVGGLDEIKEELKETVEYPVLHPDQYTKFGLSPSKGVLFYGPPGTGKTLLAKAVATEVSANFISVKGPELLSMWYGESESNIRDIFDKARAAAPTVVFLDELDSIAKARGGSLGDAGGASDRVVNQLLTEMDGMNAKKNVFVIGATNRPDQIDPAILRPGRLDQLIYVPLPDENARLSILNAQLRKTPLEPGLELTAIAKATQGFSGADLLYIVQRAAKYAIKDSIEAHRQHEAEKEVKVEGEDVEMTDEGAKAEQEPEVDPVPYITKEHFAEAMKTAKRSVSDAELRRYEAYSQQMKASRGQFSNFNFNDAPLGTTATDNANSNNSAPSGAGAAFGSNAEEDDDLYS
UniProt P19524: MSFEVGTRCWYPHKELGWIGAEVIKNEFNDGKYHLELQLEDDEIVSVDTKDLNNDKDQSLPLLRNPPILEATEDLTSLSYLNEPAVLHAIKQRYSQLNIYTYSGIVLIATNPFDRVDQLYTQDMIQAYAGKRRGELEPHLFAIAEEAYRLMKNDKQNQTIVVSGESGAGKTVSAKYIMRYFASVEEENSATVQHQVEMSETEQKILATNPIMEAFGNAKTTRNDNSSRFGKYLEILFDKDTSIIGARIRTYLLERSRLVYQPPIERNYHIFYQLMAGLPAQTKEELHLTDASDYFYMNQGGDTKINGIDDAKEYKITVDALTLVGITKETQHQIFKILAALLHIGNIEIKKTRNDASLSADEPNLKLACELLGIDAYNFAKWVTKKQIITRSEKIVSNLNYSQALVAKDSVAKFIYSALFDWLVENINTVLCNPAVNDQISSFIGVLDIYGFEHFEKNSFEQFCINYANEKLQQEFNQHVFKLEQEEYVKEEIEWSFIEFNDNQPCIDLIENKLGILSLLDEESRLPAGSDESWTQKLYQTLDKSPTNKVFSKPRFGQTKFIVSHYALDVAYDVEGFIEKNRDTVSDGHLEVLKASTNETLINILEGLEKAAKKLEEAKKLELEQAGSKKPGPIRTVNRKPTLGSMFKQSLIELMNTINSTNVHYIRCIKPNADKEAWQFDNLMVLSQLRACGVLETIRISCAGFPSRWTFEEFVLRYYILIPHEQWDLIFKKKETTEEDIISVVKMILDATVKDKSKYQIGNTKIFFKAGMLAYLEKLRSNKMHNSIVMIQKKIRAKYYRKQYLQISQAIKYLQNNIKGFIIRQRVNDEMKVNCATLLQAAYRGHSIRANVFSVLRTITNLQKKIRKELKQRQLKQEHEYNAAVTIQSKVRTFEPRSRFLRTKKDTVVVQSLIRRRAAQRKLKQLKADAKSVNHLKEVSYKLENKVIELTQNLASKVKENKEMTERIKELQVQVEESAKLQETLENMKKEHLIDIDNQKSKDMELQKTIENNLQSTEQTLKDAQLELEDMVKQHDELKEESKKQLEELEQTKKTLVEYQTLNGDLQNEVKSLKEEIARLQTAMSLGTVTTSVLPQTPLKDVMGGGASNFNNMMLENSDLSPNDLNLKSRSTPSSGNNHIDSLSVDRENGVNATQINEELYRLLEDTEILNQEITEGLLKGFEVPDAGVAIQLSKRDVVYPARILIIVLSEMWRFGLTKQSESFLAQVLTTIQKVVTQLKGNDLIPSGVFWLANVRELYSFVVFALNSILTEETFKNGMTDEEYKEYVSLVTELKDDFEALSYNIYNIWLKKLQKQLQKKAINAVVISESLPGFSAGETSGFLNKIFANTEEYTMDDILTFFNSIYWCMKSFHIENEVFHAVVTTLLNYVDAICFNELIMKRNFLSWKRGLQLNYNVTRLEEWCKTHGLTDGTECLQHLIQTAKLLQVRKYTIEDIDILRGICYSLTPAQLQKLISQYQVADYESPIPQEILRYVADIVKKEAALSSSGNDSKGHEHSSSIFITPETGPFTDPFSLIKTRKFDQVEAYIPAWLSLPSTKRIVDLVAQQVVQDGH
UniProt P48415: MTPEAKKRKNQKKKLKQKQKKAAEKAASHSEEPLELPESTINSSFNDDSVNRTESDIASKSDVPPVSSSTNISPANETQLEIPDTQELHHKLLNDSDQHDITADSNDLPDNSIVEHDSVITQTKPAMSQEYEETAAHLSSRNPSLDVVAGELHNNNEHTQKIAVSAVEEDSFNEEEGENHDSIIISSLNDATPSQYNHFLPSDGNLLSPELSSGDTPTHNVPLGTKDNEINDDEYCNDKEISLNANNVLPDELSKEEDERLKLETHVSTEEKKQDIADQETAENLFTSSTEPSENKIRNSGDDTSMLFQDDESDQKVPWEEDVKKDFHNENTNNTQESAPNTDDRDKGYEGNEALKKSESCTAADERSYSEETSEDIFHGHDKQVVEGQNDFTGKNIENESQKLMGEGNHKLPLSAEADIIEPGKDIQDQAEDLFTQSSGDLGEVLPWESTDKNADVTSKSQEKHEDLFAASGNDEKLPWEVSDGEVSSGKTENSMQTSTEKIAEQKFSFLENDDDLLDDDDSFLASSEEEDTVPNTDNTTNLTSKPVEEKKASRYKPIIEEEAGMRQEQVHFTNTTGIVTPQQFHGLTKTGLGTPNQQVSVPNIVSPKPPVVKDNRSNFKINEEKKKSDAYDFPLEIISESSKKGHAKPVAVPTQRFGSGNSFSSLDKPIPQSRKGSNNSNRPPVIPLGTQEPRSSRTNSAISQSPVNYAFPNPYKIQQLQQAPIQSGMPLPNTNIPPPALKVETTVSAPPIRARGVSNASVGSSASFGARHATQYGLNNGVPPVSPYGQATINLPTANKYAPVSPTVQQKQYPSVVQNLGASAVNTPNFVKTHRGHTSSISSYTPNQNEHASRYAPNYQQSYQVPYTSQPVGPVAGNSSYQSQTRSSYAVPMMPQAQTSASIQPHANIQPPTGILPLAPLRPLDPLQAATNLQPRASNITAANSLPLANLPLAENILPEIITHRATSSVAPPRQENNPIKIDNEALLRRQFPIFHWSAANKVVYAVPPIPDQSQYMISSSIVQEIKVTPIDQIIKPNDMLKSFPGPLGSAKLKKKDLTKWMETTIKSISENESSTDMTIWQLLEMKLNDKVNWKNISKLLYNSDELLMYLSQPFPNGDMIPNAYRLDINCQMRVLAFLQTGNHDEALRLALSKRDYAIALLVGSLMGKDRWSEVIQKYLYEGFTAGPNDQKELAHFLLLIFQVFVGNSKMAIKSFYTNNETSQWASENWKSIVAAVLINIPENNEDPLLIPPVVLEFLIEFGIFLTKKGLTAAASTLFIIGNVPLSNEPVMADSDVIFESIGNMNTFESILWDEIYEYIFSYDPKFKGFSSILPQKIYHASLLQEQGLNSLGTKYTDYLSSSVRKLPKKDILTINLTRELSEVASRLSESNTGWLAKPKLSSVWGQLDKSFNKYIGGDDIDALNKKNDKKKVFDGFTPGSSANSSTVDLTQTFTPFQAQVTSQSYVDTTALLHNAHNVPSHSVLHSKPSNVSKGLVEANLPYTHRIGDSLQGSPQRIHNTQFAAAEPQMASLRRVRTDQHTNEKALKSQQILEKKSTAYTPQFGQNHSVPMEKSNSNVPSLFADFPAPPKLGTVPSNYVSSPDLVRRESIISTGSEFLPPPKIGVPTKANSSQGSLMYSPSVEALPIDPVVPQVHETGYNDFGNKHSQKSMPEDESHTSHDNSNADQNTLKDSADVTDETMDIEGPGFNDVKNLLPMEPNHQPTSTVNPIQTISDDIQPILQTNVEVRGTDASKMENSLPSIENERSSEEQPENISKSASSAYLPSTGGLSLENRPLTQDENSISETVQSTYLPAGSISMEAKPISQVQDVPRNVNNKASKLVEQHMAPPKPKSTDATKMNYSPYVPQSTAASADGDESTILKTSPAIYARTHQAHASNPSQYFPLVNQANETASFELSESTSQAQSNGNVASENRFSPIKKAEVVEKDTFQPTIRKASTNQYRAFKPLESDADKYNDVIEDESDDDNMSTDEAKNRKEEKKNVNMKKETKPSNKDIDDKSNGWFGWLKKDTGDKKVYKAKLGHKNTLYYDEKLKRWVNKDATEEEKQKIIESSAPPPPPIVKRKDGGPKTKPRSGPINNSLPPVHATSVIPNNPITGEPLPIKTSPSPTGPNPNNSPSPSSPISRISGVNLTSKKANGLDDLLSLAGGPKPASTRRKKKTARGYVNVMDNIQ

Target: T1, Myc9-TEV2-His6-Smy2 (S. cerevisiae) (UniProt P32909)
T1 sequence: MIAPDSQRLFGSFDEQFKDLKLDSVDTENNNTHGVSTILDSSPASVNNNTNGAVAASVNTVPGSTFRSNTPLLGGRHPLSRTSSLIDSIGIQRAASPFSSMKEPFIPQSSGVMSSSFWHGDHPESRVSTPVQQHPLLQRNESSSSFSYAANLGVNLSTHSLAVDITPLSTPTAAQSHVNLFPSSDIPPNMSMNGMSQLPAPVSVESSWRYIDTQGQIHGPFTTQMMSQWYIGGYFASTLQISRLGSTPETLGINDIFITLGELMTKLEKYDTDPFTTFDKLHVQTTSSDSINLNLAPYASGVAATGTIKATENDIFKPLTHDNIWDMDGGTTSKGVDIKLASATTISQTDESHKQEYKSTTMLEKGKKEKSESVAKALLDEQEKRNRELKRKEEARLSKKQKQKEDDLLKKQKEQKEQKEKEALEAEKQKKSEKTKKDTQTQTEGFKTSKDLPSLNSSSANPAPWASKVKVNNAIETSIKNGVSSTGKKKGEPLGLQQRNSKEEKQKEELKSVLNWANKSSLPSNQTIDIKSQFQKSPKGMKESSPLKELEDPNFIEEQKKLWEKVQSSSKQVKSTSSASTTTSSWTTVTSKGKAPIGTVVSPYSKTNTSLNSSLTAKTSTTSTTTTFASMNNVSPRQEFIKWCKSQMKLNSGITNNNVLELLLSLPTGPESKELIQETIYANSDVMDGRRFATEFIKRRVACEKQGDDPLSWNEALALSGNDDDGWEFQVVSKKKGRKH
Experiment: affinity purification with mass spectrometry; two-step purification of Myc9-TEV2-His6-Smy2 from yeast extract: anti-Myc 9E10 protein G beads, washes with 500 mM potassium acetate, TEV release, nickel beads; eluate to LC/MS/MS; beads alone / untagged control

| Substance | binding |
| --- | --- |
| Cdc48 (from UniProt P25694 1-835) | binds |
| Myo2 (from UniProt P19524 1-1574) | binds |
| Sec16 (from UniProt P48415 1-2195) | binds |

No constants are given. Whether binding was seen depends on the method and setting. Binding seen in cells or lysates may run through a third protein. Here binding means that the protein was enriched with, or labelled near, the bait; the list need not be complete. Sequences can lack the tags named with a protein.
